Measured values taken from article PMC5487423.
Where a chain is given by its changes, count along the chain named. Results are given in words; binding and its absence hold for the method and conditions named. Some binding calls cover weakened binding; strength is not graded here. For some assays here: Sequences can lack the tags named with a protein.

Legend:
[1] = molecular target: T1, P467_RHIPU, yeast surface display, N-terminal AGA2 fusion (Rhipicephalus pulchellus) (UniProt L7M8Z8); test: flow cytometry on cells; yeast (EBY100) displaying one evasin fusion after galactose induction, labelled in PBS with biotinylated chemokine (Almac) and streptavidin-Alexa647, 30 minutes on ice; compared with yeast bearing the empty surface display vector; only the binder purified
T1 sequence: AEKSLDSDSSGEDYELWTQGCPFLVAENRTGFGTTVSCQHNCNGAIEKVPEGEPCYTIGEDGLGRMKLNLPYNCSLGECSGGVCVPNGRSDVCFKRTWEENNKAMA

[2] = molecular target: T2, P467_RHIPU, yeast surface display, C-terminal SAG1 fusion (Rhipicephalus pulchellus) (UniProt L7M8Z8); test: as above
T2 sequence: T1 sequence

[3] = molecular target: T3, P991_AMBCA, yeast surface display library clones (Amblyomma cajennense); test: flow cytometry on cells; yeast surface display library (mini-library of 24, maxi-library of 352 putative evasins; N-terminal AGA2, C-terminal SAG1 or AGA2) labelled with one biotinylated human CC chemokine and streptavidin-AF647, two rounds of FACS with a gate set by omitting the chemokine; clones sequenced, re-transformed and retested by FACS; only the binder purified
T3 sequence: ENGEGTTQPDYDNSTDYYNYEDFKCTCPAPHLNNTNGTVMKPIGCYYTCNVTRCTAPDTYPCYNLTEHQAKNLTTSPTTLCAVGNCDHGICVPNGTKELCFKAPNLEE

[4] = molecular target: T4, P974_AMBCA, yeast surface display library clones (Amblyomma cajennense); test: as above
T4 sequence: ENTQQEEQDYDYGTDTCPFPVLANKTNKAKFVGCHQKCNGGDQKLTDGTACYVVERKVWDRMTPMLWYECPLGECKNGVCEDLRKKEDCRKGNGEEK

[5] = molecular target: T5, P1182_AMBMA, yeast surface display library clones (Amblyomma maculatum) (UniProt G3MJ83); test: as above
T5 sequence: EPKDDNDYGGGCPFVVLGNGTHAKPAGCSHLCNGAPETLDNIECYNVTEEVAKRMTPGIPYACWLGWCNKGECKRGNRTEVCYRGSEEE

[6] = molecular target: T6, P1180_AMBTR, yeast surface display library clones (Amblyomma triste); test: as above
T6 sequence: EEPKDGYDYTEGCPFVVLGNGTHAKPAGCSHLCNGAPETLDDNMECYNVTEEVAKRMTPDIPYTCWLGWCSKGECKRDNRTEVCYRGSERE

[7] = molecular target: T7, P467_RHIPU, yeast surface display library clones (Rhipicephalus pulchellus) (UniProt L7M8Z8); test: as above
T7 sequence: T1 sequence

[8] = molecular target: T8, P546_AMBCA, yeast surface display library clones (Amblyomma cajennense); test: as above
T8 sequence: T4 sequence with Q8E, E69S, D88E

[9] = molecular target: T9, P467_RHIPU, yeast surface display, C-terminal SAG1 fusion (Rhipicephalus pulchellus), L7M8Z8; test: flow cytometry on cells; yeast (EBY100) displaying one evasin fusion after galactose induction, labelled in PBS with biotinylated chemokine (Almac) and streptavidin-Alexa647, 30 minutes on ice; compared with yeast bearing the empty surface display vector; only the binder purified; conditions: remark: other sources report otherwise
T9 chain: T1 sequence

[10] = molecular target: T10, P546_AMBCA, yeast surface display library clones (Amblyomma cajennense), A0A023; test: flow cytometry on cells; yeast surface display library (mini-library of 24, maxi-library of 352 putative evasins; N-terminal AGA2, C-terminal SAG1 or AGA2) labelled with one biotinylated human CC chemokine and streptavidin-AF647, two rounds of FACS with a gate set by omitting the chemokine; clones sequenced, re-transformed and retested by FACS; only the binder purified; conditions: remark: other sources report otherwise
T10 chain: T4 sequence with Q8E, E69S, D88E

B1: biotinylated CCL18 (ligand, UniProt P55774 21-89)
chain: AQVGTNKELCCLVYTSWQIPQKFIVDYSETSPQCPKPGVILLTKRGRQICADPNKKWVQKYISDLKLNA
[1]
  binding: binds
[2]
  binding: binds
[3]
  binding: binds
[4]
  binding: binds
[5]
  binding: binds
[6]
  binding: binds

B2: biotinylated CCL1 (ligand, UniProt P22362 24-96)
chain: KSMQVPFSRCCFSFAEQEIPLRAILCYRNTSSICSNEGLIFKLKRGKEACALDTVGWVQRHRKMLRHCPSKRK
[2]
  binding: binds
[7]
  binding: binds
[4]
  binding: binds
[8]
  binding: binds

B3: biotinylated CCL17, Q92583 24-94 (ligand)
chain: ARGTNVGRECCLEYFKGAIPLRKLKTWYQTSEDCSRDAIVFVTVQGRAICSDPNNKRVKNAVKYLQSLERS
[9]
  binding: binds

B4: biotinylated CCL19, Q99731 22-98 (ligand)
chain: GTNDAEDCCLSVTQKPIPGYIVRNFHYLLIKDGCRVPAVVFTTLRGRQLCAPPDQPWVERIIQRLQRTSAKMKRRSS
[9]
  binding: binds

B5: biotinylated CCL22, O00626 25-93 (ligand)
chain: GPYGANMEDSVCCRDYVRYRLPLRVVKHFYWTSDSCPRPGVVLLTFRDKEICADPRVPWVKMILNKLSQ
[9]
  binding: binds

B6: biotinylated CCL22 (ligand, UniProt O00626 25-93)
chain: B5 chain
[3]
  binding: binds
[4]
  binding: binds
[8]
  binding: binds

B7: biotinylated CCL5, P13501 24-91 (ligand)
chain: SPYSSDTTPCCFAYIARPLPRAHIKEYFYTSGKCSNPAVVFVTRKNRQVCANPEKKWVREYINSLEMS
[10]
  binding: binds
